Results taken from ChEMBL document CHEMBL4011581, “Interference with bile salt export pump function is a susceptibility factor for human liver injury in drug development” (Toxicol Sci, 2010).

Biological target: Bile salt export pump (Homo sapiens, UniProt O95342)
Assay: Inhibition of human BSEP expressed in fall armyworm sf9 cell plasma membrane vesicles assessed as reduction in vesicle-associated [3H]-taurocholate transport preincubated for 10 mins prior to ATP addition measured after 15 mins in presence of [3H]-taurocholate by topcount based membrane vesicle transport assay
Assay type: ADME

## CN(C)CCOC(c1ccccc1)c1ccccc1 [DIPHENHYDRAMINE]
  IC50: > 135 µM
